The results in this text go back to the supplement of paper PMC12764529.

± gives the half width of the 95% confidence interval. The two proteases of the assay disagree for many of these sequences.

Series [1] is described as follows: folding stability dG unfold from trypsin proteolysis; higher = more stable. The method, then: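 Folding stability of de novo designed mini-proteins (<80 aa, no Cys; designed by TrROS, TrMRF, ProteinMPNN and the joint model) was measured by cDNA display proteolysis with trypsin and chymotrypsin. Each protease was used at 11 concentrations in a threefold dilution series plus a no-protease condition. K50 was inferred by Bayesian fitting of sequencing counts, and dG unfold was derived against a sequence-predicted unfolded-state K50 (Tsuboyama et al. method). Sequences shown include variable-length N-terminal GS-type padding (SAGGSAGG...) inside a display construct carrying a PA tag. Rows were kept only if the AF2 dimer inter-PAE was >15, to exclude likely homo-oligomers.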

The nature of series [2]: folding stability dG unfold from chymotrypsin proteolysis; higher = more stable. The gist of the method:
(§1)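 Unfolding free energy was derived, per protease or combined, against a sequence-predicted unfolded-state K50 and a shared folded-state K50, starting from K50 inferred by Bayesian fitting of sequencing counts. Digestion with trypsin and chymotrypsin was carried out on designed mini-proteins under 80 residues without cysteine in a PA-tagged cDNA display construct. Only designs with AlphaFold2 dimer inter-PAE above 15 were kept.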

A short description of series [3]: folding stability dG unfold (combined trypsin and chymotrypsin); higher = more stable. In outline:
as §1

In the case of “SMTISIPGGITITIEPKPNSYTLTVSFPDGSTVTRPVDPSDLTSAIKAVIREALRRADPNITEEEIEKLLSA [r9_634_JUSTAS]”, the entries for the “folding stability dG unfold” value in series [1], in series [2] and in series [3] were 4.39 ± 0.1 kcal/mol, 6.07 ± 0.17 kcal/mol and over 6 kcal/mol, respectively.
For “ETITIELPEELRGLSAEEIKALLREKLNLPGVEVTVEYDPETRTVTVTVRVAPPPPKVEVTEEELKKLEEES [r1_131_TrROS_Hall]” the same measures were 2.44 ± 0.095 kcal/mol, 4.78 ± 0.62 kcal/mol and 3.97 ± 0.28 kcal/mol.
For “SAGGSAPNKWKTVDIEFMFPPDNLEEFVDEISKLPGIKASIEPVEYDPEGMYWMKIDITIPPGMKISAGGSA [r15_441_TrROS]” the same measures were 1.16 ± 0.048 kcal/mol, 1.74 ± 0.12 kcal/mol and 1.64 ± 0.21 kcal/mol.
For the sequence “MEKVLILAKIKLKGPDGEEAEIDFAVEISPEEATPELLKKVREEAEEIAEALKEKGYEVELEVEVVKLGEES [r1_221_TrMRF]”, the figures for the “folding stability dG unfold” value in series [1], in series [2] and in series [3] were 3.62 ± 0.48 kcal/mol, 2.88 ± 0.24 kcal/mol and 3.25 ± 0.65 kcal/mol, respectively.
The matching figures for “SAGGSAGGSAPDLRLTSESLFLLPDGYLLVVRRTFDPRGEDDVEVEVRVFPLGPLRPPPEARSAGGSAGGSA [r18_409_TrMRF]”: 0.622 ± 0.4 kcal/mol, 3.14 ± 0.11 kcal/mol and 2.84 ± 0.15 kcal/mol.
For “SAMKVVKKTFPPSVSKEEAIAEAEAELKAKGLEIEEVKVEELPDGTILVTLTVKEKPEMSPEVVEEIKKSAG [r14_110_JUSTAS]” the same measures were 0.963 ± 0.025 kcal/mol, 3.49 ± 0.1 kcal/mol and 2.93 ± 0.12 kcal/mol.
For “SAGGDILEKAIDHAQRNGEPAEIYLPLPDPNGEPWVIRIEVRIKPDPDDPNKYKIEINIEIVPPKDISAGGS [r16_323_TrROS]” the same measures were 2.16 ± 0.086 kcal/mol, 4.49 ± 0.17 kcal/mol and 3.95 ± 0.2 kcal/mol.
As for “SAGMSVEDLIAKAKAEIEKAKKEGLKEITINFPYSPEDLEALRKALPSNVTITPSETNTVTITFKIPEKSAG [r5_268_JUSTAS]”, the “folding stability dG unfold” value came out at 2 ± 0.067 kcal/mol in series [1], 4.34 ± 0.054 kcal/mol in series [2] and 3.92 ± 0.089 kcal/mol in series [3].
The matching figures for “SAGGSAGGSAGAETETRTETRVERPAPTVTVTLTFTLPDGLTVRLTFDAATQELTLEVYPSAGGSAGGSAGG [r17_369_TrROS_Hall]”: 2.11 ± 0.093 kcal/mol, 4.35 ± 0.07 kcal/mol and 3.88 ± 0.13 kcal/mol.
The matching figures for “SAGGSKAEKIAEFEVDGKKITLYKNEDGSYVIEVEIDGKKVTITVKKDMSLEEIENLLKELKEKAKSAGGSA [r2_243_TrROS_Hall]”: 1.6 ± 0.1 kcal/mol, 4.39 ± 0.22 kcal/mol and 3.93 ± 0.37 kcal/mol.
Take “SAGGSAGGSAGLLPIEELLKKNPEPVTFMVKDNDTLYRIEITPKDGKWTIEIEPLPGMKPSAGGSAGGSAGG [r11_549_TrROS]”: the “folding stability dG unfold” value came out at 0.756 ± 0.021 kcal/mol in series [1], 1.49 ± 0.077 kcal/mol in series [2] and 1.2 ± 0.043 kcal/mol in series [3].
The matching figures for “SAGGSAGGMTVTFTLPATAPENALENVTATVTYNGKTYLVKITATPVPDGPFVVVTAELVEYDPSAGGSAGG [r6_415_TrMRF]”: 3.02 ± 0.083 kcal/mol, 3.68 ± 0.14 kcal/mol and 3.34 ± 0.17 kcal/mol.
For “SAGGSADPKGQPPKTYTVMIMFKVPKPGQPLEITEEWIREIFRPFGVKVNIHRHGDYVMIEVTFYVSAGGSA [r15_377_TrROS]”, the “folding stability dG unfold” value in series [1] was 2.7 ± 0.1 kcal/mol; in series [2], 5.9 ± 0.095 kcal/mol; in series [3], 5.7 ± 0.2 kcal/mol.
For “SAGGSAGGAKVVKPPVTVTLVMKFETEEEARAAAEELRKKYNVTVEISPDGKYVRITVTLPPLPSAGGSAGG [r6_90_TrROS_Hall]” the same measures were 1.59 ± 0.029 kcal/mol, 4.44 ± 0.12 kcal/mol and 4 ± 0.14 kcal/mol.
The matching figures for “SAGEEIAKRLAEELKEKGYEVEVKVTVEYDEETGEVTITIEIKVKPKPAPPVKIEKKLEGMSEEEKKALSAG [r5_413_TrROS_Hall]”: 0.113 ± 0.12 kcal/mol, 0.137 ± 0.084 kcal/mol and 0.187 ± 0.29 kcal/mol.
The matching figures for “SAGGSAEEEKYYVLRVKIPVERKLPNGKVERVEVELTFVFKSKEDAEAAAEKLRELGFEVELVEKESAGGSA [r15_117_TrROS_Hall]”: 3.35 ± 0.07 kcal/mol, 5.616 ± 0.047 kcal/mol and 5.52 ± 0.1 kcal/mol.
Regarding “SAGGMVEVTYDPETGTLTILLPSPSGTLGPEAVEAAARLIRELYPEAEVEVEPLPDNTVRLRVRFPGGSAGG [r13_291_TrMRF]”, the “folding stability dG unfold” value in series [1] amounted to 4.22 ± 0.093 kcal/mol; in series [2], 5.38 ± 0.23 kcal/mol; in series [3] it was 4.96 ± 0.14 kcal/mol.
The matching figures for “SAGIKLPPGQPVPFYVVKIEWEWSLSPNPDGQWMLSLSMRIEIVPFEIKVPPVPTVKVPPGAKDPEDAKSAG [r5_770_TrROS]”: 2.06 ± 0.1 kcal/mol, 4.3 ± 0.14 kcal/mol and 4.07 ± 0.3 kcal/mol.
The matching figures for “SAGMKVTVLKTENLGDTTVTYYKIEKPDGGKDLLGVATYDPATGTTTVTIYDPSNGKKVSEPVIPVEPASAG [r5_440_JUSTAS]”: 0.61 ± 0.032 kcal/mol, 2.7 ± 0.044 kcal/mol and 2.28 ± 0.053 kcal/mol.
For “SAGGSAGGSAGGAAPPGIEVRVFATRTPDGTVRFVAVVTLPDGTPFVFEATLPVHPDAVFSAGGSAGGSAGG [r7_610_TrMRF]” the same measures were -0.358 ± 0.51 kcal/mol, 2.86 ± 0.038 kcal/mol and 2.27 ± 0.12 kcal/mol.
Regarding “SAGGSGTESKEYPDSKVTVTPVPLPLGDGAPVLRVTTVPKLPNGEPVTTVTLVDPDSDVVVTEETLSAGGSA [r2_484_JUSTAS]”, the “folding stability dG unfold” value was -0.0208 ± 0.028 kcal/mol in series [1], 0.925 ± 0.012 kcal/mol in series [2] and 0.598 ± 0.044 kcal/mol in series [3].
The matching figures for “SAGGSAGGSAPTLTLELEVPTPEEAAALAEALREAGYEVEVEVRYDEATNRLTVRITVRPKPSAGGSAGGSA [r18_455_TrROS_Hall]”: 0.0883 ± 0.14 kcal/mol, 2.67 ± 0.044 kcal/mol and 2.4 ± 0.048 kcal/mol.
Regarding “SAAAAVAAAVAATLEALLPPGYRITAVTAEVAPDGTVTIPVTVEGPDGVPTLVVVTVDLATGEITVTVFGSA [r9_219_TrMRF]”, the “folding stability dG unfold” value in series [1] worked out at 3.17 ± 0.16 kcal/mol; in series [2] it was 4.63 ± 0.21 kcal/mol; in series [3] it was 4.22 ± 0.22 kcal/mol.
“SAGGSAKLTLTIVLKVKPGQKINLTLTLPNGVKAKITSVEVDEETGYIVVEIEIEVEVHPDDPALKSAGGSA [r15_994_TrROS_Hall]”: the “folding stability dG unfold” value in series [1] was 2.29 ± 0.074 kcal/mol; in series [2], 5.3 ± 0.22 kcal/mol; in series [3], 4.79 ± 0.54 kcal/mol.
As for “SAGGMEEKIKELAEKLGIKEVYPEEEIKKLPEEEKGKIVIVVDEDGNVHIYIILPNGKKIEFTFKVKSAGGS [r16_686_TrROS_Hall]”, the entries for the “folding stability dG unfold” value in series [1], in series [2] and in series [3] were 0.899 ± 0.23 kcal/mol, 4.43 ± 0.16 kcal/mol and 3.47 ± 0.57 kcal/mol, respectively.
The matching figures for “SGVRTALGRARIERLPDGSVRLELDLLTEPPSGRVVRRRLRFVFYPGSGRVGVEPETEVLPVPPGAPGLGSA [r9_709_TrMRF]”: 1.03 ± 0.077 kcal/mol, 3.99 ± 0.071 kcal/mol and 3.35 ± 0.1 kcal/mol.
For “SAGKIKPGEKKEITIKVDGKEYKITMTTYKNEDGSTYKVIEVEVNGKKYTFVVKEGEKVTLEELKKLLKSAG [r5_138_TrROS_Hall]” the same measures were 2.62 ± 0.18 kcal/mol, 5.18 ± 0.16 kcal/mol and 5.09 ± 0.31 kcal/mol.
Turning to “SAGGSAMTVTVELEFEPVTVTDADGKEREVPVRVKVTAKVELVRDPETGELVERVEVTSIEIEVEPSAGGSA [r15_884_TrROS_Hall]”, the “folding stability dG unfold” value in series [1] is 1.73 ± 0.069 kcal/mol; in series [2] it was 1.92 ± 0.079 kcal/mol; in series [3], 1.87 ± 0.15 kcal/mol.
Consider “SAGGSAGGSGTVTLTLTARFRFRVTRVERRDGKLTVTTVEVEVEVTLTLTLPAPARPDDPALRSAGGSAGGS [r12_713_TrROS_Hall]”, for which the “folding stability dG unfold” value in series [1] amounted to 2.13 ± 0.065 kcal/mol; in series [2], 5.26 ± 0.12 kcal/mol; in series [3], 4.9 ± 0.16 kcal/mol.
Turning to “SAEEKPERTVTVTLTLTETRTVTKNENGEETTVTETRTLTLTLTVTVPEDEELRKKAEELAKELLEALSSAG [r14_223_TrROS_Hall]”, the “folding stability dG unfold” value was 3.34 ± 0.16 kcal/mol in series [1], 5.42 ± 0.41 kcal/mol in series [2] and over 6 kcal/mol in series [3].
The matching figures for “SAGGSAGGSAGDKTTIRIKVARNWDPNSDLVTVKLPNGKTVTVKVTNLKPDDEVEVEADLSAGGSAGGSAGG [r11_621_JUSTAS]”: -0.953 ± 0.62 kcal/mol, 1.52 ± 0.046 kcal/mol and 1.03 ± 0.095 kcal/mol.
For “SAGAIEKILEALKKAKPGEKVEITIKLPDGSTIKITITYDKETGKYTITVKVIDKKTGKIVKEFKFTLPSAG [r5_35_TrROS_Hall]” the same measures were 3.23 ± 0.14 kcal/mol, 5.6 ± 0.11 kcal/mol and 5.6 ± 0.24 kcal/mol.
For “SAGGMILVEENGRLYLVEVKVEMKVERDPEVPGEFRMEIRVEIRVREIPLEEIKPLPPPHPDDPENKSAGGS [r16_395_TrROS_Hall]” the same measures were 2.19 ± 0.12 kcal/mol, 4.71 ± 0.36 kcal/mol and 3.94 ± 0.35 kcal/mol.
Take “SAGGMEIVSSGSLEEAIALLKENPNTTITVTLPDGTTVVIKVTQNGEGPYIYDVSTEPPAAAPSPSLVSAGG [r13_56_JUSTAS]”: the figures for the “folding stability dG unfold” value in series [1], in series [2] and in series [3] were 2.15 ± 0.096 kcal/mol, 1.1 ± 0.038 kcal/mol and 1.66 ± 0.079 kcal/mol, respectively.
